Assay results reported in patent US20180016344A1.
These are yes or no findings as the source states them, for the method shown. Binding can be weak; no strength is given.

B1: DR5 mAb 1 (antibody, V domains shown)
VH: EVKFLESGGGLVQPGGSLKLSCVASGFDFSRYWMSWVRQAPGKGLEWIGEINPDSNTINYTPSLKDKFIISRDNAKNTLYLQMTKVRSEDTALYYCTRRAYYGNPAWFAYWGQGTLVTVSS
VL: DIVLTQSPASLAVSLGQRATISCRASKSVSSSGYSYMHWYQQKPGQPPKVLIFLSSNLDSGVPARFSGSGSGTDFTLNIHPVEDGDAATYYCQHSRDLPPTFGGGTKLEIK
B2: DR5 mAb 2 (antibody, V domains shown)
VH: KVQLQQSGAELVKPGASVKLSCKASGYTFTEYILHWVKQKSGQGLEWIGWFYPGNNNIKYNEKFKDKATLTADKSSSTVYMELSRLTSEDSAVYFCARHEQGPGYFDYWGQGTTLTVSS
VL: DIVMTQSHKFMSTSVGDRVSITCKASQDVNTAVAWYQQKPGQSPKLLIYWASTRHTGVPDRFTGSGSGTDYTLTIKSVQAEDLTLYYCQQHYITPWTFGGGTKLEIK

Tests used:
[1] = target: cynomolgus monkey (Macaca fascicularis) DR5 (cynomolgus monkey (Macaca fascicularis)); assay: antibody titration read as MFI (log axis) against concentration in nM; the text does not describe the assay format or how DR5 was presented (Example 2)
[2] = target: cynomolgus monkey (Macaca fascicularis) DR5 (cynomolgus monkey (Macaca fascicularis)); assay: legend of FIG. 5

binding [1] | binding [2] | Binder
binds | binds | B1
binds | binds | B2
